Patent publication US20080027143A1, “CHEMICAL FORMULATION FOR AN INSECTICIDE” (priority 2006, published 2008)

experiment: Damage to surfaces: solvent droplet on nitrocellulose lacquer finish; settings: droplet of solvent on clear nitrocellulose lacquer finish for 15 minutes, then wiped dry

Row | SMILES | Observation (damage to lacquer finish)
1 | CC(C)=O [Acetone] | Lacquer finish completely dissolved
2 | CCCOCC(C)O (stereo not shown) [DOWANOL ® PnP] | Lacquer finish partially dissolved
3 | CCCCOCCOCCO [Diethylene Glycol Butyl Ether] | No impact on lacquer finish
4 | CCO [Ethanol] | No impact on lacquer finish
5 | CCCCOCCO [Ethylene Glycol Butyl Ether] | Lacquer finish partially dissolved
6 | CCCCCCCCCCCCCC(=O)OC(C)C [Isopropyl Myristate] | No impact on lacquer finish
7 | CN1CCCC1=O [N-Methyl Pyrrolidone] | Lacquer finish completely dissolved
8 | CC(O)CO (stereo not shown) [Propylene Glycol] | No impact on lacquer finish
9 | O [Water] | No impact on lacquer finish
10 | CCCCCCC [n-Heptane] | No impact on lacquer finish

Some entries repeat one wording, which the source may state once for all of them.
